From the supplement of paper PMC12823440, “Inhibitors supercharge kinase turnover through native proteolytic circuits” (Nature, 2025)
Counter-ions that a name gives are not always drawn. The list shows a part of the results. The calls rarely recur for the same compound in another form.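 Kinases were expressed as nanoluciferase fusions in K562 cells and luminescence was read every 4 h between 2 and 18 h as percent of control, DMSO set to 100% and a positive control to 0%. A time point counts as decreased when the signal drops significantly (2 sigma). The hit call is the authors' own, does not follow from the count of time points alone, and its rule is not shown.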

Amino acid sequences for entries named in this document (tags omitted). A change or cut given only in a name is not applied to a line headed by its entry.
UniProt Q9UM73: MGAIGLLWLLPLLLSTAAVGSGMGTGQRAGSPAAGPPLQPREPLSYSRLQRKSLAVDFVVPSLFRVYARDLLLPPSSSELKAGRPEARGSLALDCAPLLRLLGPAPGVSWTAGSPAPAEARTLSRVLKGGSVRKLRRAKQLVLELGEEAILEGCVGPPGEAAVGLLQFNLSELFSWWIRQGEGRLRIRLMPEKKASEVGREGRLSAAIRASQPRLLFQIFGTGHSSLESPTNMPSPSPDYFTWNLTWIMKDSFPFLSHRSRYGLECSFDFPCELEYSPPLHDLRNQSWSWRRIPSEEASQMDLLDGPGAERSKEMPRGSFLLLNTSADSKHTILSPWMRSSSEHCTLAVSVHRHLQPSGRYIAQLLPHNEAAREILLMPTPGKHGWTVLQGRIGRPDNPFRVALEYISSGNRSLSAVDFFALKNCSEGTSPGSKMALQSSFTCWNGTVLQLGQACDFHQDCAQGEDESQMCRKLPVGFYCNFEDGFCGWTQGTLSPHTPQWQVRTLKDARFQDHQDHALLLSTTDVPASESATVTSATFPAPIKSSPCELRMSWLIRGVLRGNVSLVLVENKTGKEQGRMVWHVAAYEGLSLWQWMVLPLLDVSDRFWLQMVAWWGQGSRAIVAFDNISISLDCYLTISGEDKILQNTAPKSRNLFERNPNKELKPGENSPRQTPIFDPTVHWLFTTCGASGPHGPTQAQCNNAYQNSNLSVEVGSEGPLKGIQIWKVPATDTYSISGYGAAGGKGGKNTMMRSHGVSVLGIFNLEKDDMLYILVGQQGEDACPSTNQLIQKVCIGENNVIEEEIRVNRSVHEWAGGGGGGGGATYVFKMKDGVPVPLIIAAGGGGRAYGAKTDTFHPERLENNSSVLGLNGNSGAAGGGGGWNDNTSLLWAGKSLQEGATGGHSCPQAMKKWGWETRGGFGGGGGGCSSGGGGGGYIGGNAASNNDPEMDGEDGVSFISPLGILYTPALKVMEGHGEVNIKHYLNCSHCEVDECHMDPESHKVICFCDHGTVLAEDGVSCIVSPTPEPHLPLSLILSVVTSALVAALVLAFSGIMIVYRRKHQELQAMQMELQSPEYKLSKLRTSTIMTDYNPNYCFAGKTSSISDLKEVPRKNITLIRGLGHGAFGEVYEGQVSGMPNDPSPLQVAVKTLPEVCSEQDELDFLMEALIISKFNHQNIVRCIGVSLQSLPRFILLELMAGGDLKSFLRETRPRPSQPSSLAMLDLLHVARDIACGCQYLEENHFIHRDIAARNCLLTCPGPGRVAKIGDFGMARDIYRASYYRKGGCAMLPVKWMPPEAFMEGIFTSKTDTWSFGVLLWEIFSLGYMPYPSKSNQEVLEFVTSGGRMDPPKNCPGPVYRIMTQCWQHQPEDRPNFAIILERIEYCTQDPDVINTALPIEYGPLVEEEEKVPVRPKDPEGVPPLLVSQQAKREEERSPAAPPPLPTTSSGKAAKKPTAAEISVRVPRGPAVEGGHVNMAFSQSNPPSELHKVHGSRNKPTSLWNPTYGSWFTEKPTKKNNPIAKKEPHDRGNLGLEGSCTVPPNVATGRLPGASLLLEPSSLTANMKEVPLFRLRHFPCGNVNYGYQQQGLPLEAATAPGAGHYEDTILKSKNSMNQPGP
UniProt P10398: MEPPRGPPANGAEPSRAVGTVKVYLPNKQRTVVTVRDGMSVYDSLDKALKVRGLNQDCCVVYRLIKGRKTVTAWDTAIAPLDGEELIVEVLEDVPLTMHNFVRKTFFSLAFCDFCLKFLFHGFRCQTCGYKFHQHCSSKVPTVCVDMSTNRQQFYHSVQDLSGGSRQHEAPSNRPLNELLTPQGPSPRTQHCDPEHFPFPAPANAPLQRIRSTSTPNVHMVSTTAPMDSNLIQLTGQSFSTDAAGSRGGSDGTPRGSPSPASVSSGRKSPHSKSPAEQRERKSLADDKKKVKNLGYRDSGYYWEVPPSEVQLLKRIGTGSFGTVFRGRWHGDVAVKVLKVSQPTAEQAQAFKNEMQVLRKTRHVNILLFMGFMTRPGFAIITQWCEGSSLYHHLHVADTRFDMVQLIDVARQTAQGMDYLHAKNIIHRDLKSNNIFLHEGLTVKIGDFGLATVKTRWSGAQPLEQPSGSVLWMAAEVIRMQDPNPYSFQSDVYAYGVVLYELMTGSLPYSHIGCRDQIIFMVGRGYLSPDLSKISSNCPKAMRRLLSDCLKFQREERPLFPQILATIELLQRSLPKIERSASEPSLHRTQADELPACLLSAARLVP
UniProt O14965: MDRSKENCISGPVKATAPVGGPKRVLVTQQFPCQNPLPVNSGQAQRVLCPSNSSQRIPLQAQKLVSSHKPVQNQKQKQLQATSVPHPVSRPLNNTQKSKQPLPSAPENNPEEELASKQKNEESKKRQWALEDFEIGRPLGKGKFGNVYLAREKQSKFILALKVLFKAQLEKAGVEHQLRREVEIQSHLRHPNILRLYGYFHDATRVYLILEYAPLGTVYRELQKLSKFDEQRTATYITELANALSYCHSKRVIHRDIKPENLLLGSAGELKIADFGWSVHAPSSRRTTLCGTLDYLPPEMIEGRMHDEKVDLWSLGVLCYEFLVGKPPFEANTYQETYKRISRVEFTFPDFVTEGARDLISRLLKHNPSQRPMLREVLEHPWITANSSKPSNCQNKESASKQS
UniProt Q96GD4, whole entry: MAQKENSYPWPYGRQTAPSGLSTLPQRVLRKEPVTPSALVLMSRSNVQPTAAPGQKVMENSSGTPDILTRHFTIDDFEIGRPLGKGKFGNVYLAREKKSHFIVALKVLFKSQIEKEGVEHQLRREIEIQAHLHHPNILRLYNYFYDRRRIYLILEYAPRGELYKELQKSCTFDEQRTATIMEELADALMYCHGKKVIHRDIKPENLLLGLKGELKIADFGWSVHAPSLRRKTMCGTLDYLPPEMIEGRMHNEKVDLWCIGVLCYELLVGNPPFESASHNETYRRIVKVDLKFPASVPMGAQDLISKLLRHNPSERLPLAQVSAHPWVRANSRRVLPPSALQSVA
UniProt Q9UQB9: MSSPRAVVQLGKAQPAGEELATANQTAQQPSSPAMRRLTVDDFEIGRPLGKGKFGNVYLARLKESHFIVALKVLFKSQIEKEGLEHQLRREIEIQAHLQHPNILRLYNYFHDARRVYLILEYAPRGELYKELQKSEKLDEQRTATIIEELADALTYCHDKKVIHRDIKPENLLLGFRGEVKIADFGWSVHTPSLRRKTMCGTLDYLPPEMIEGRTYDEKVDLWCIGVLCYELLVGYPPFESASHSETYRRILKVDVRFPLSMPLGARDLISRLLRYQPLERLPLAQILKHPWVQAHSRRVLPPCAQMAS
UniProt P51451: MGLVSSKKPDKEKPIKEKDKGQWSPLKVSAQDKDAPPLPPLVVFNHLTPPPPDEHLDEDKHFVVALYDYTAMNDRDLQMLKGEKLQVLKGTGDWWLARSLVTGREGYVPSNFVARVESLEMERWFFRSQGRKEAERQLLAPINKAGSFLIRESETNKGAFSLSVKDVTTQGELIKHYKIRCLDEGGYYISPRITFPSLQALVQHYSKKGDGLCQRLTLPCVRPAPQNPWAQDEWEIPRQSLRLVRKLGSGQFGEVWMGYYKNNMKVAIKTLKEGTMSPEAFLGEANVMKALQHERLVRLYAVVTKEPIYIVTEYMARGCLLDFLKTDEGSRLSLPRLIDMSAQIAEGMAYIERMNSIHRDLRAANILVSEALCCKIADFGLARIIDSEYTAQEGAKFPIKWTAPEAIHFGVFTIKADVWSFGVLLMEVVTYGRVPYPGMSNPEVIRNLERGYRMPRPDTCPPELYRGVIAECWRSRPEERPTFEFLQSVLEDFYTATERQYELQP
UniProt P51813: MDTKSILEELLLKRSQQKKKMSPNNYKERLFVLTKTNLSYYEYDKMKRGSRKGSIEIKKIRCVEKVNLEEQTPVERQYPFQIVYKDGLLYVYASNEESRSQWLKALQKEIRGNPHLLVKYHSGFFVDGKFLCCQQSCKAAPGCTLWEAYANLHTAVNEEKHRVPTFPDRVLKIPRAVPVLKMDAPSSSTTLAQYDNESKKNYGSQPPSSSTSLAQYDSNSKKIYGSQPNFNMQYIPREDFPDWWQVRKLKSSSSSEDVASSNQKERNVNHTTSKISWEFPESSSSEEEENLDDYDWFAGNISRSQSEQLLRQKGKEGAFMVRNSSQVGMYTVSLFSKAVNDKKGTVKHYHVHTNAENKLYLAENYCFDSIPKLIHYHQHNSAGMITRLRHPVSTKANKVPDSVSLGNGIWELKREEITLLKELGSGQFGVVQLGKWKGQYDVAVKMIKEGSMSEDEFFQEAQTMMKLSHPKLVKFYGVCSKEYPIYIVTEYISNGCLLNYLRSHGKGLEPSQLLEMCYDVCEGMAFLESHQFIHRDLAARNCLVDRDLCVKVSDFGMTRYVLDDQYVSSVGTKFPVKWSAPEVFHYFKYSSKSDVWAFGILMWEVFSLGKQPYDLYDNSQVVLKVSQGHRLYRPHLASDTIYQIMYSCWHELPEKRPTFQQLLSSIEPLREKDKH
UniProt P15056, whole entry, looked up: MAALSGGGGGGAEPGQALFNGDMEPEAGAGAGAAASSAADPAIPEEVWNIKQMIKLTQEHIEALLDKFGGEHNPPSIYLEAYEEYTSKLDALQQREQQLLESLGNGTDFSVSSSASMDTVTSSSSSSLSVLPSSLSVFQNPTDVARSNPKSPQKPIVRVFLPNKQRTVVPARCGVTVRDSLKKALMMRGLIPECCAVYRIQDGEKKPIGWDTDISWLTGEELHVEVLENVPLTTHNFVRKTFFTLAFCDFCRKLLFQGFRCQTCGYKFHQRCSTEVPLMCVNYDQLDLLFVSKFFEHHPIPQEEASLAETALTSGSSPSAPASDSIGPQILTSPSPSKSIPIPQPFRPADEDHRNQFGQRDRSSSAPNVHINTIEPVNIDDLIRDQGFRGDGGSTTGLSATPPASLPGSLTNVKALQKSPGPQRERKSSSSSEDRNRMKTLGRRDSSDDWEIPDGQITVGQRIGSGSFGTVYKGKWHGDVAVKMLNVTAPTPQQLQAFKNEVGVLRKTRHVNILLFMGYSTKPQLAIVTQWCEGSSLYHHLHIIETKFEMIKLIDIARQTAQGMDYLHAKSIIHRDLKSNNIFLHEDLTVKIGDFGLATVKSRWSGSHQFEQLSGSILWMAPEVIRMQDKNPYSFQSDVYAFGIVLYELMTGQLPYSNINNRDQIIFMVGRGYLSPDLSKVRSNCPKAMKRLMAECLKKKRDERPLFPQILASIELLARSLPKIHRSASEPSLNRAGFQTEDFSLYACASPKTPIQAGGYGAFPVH
UniProt Q06187: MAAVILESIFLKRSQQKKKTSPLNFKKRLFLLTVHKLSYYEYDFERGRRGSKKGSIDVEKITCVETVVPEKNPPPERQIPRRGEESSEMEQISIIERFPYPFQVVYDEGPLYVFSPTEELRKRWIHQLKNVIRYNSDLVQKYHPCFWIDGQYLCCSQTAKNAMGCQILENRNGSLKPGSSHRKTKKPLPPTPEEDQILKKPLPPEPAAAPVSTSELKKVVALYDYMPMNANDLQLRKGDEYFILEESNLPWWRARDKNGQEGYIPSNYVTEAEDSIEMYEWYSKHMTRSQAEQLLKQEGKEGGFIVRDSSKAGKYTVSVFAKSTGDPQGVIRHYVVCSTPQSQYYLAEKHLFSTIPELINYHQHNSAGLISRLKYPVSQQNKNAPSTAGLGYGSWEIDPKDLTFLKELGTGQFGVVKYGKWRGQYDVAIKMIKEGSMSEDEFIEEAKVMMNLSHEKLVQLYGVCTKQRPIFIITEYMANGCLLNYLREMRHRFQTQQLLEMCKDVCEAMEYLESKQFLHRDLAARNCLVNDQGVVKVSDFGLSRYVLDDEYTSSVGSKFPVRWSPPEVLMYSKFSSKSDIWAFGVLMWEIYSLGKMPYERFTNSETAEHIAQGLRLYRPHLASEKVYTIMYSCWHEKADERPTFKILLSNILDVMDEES

Key:
Assay in all cases: number of time points (of 5) at which kinase-Nluc abundance scored as decreased, DMSO-normalised (count); higher = more persistent destabilization
Settings in all cases: K562; 2-18 h
[1] = target: ALK (UniProt Q9UM73)
[2] = target: ARAF (UniProt P10398)
[3] = target: AURKA (UniProt O14965)
[4] = target: AURKB (UniProt Q96GD4)
[5] = target: AURKC (UniProt Q9UQB9)
[6] = target: BLK (UniProt P51451)
[7] = target: BMX (UniProt P51813)
[8] = target: BRAF (UniProt P15056)
[9] = tested on: BRAF_V600E
[10] = target: BTK (UniProt Q06187)

SMILES	number of time points [1]	number of time points [2]	number of time points [3]	number of time points [4]	number of time points [5]	number of time points [6]	number of time points [7]	number of time points [8]	number of time points [9]	number of time points [10]
CCN(C)C(=O)c1ccc2c(C(=Nc3ccc(CN4CCCCC4)cc3)c3ccccc3)c(O)[nH]c2c1 (2.5 µM)	0	0	0	0	0	0	0	0	0	0
c1ccc(-c2nn3c(c2-c2ccnc4cc(OCCN5CCOCC5)ccc24)CCC3)nc1 (10 µM)	0	0	0	0	0	0	0	0	0	0
O=C(O)CCc1ccc(NCc2cccc(Oc3ccccc3)c2)cc1 (10 µM)	0	0	0	0	0	0	0	0	0	0
Cc1ccc(-c2ccc3c(ccc4sc5c(c43)NC[C@@H](C)NC5=O)n2)cn1 (10 µM)	0	0	0	0	0	0	0	0	0	0
COc1ccc2c(=O)c(-c3ccccc3)coc2c1 [7-Methoxyisoflavone] (10 µM)	0	0	4	4	0	0	0	0	2	0
O=C(c1ccc(Nc2nccc(-c3cc4ccccc4s3)n2)cc1)N1CCC(N2CCCC2)CC1 (2.5 µM)	0	0	0	0	0	0	0	0	0	0
Cc1cnc(Nc2ccc(N3CCN(C)CC3)cc2)nc1Nc1cccc(S(=O)(=O)NC(C)(C)C)c1 (2.5 µM)	0	0	0	0	0	0	0	0	0	0
Cc1nc(NC(=O)NCCc2nnn(CCF)n2)sc1-c1ccc(S(C)(=O)=O)c(F)c1 (10 µM)	0	0	0	0	0	0	0	0	0	0
Nc1ncc(-c2ccc(C(=O)N3CCNCC3)cc2)nc1-c1ccc(C(F)(F)F)cc1 (10 µM)	0	0	0	0	0	0	0	0	0	0
O=c1nc(N2CCOCC2)oc2c(-c3cccc4c3sc3ccccc34)cccc12 (10 µM)	0	0	0	0	0	0	0	0	0	0
C[C@@H]1O[C@@H](OC[C@H]2O[C@@H](Oc3cc(O)c4c(c3)O[C@H](c3ccc(O)cc3)CC4=O)[C@H](O)[C@@H](O)[C@@H]2O)[C@H](O)[C@H](O)[C@H]1O [Narirutin] (10 µM)	0	0	0	0	0	0	0	0	0	0
CC(C)(O)[C@@H]1CC[C@](C)([C@H]2[C@@H](O)C[C@@]3(C)[C@@H]4C[C@H](O[C@@H]5O[C@H](CO)[C@@H](O)[C@H](O)[C@H]5O)[C@H]5C(C)(C)[C@@H](O[C@@H]6OC[C@@H](O)[C@H](O)[C@H]6O[C@@H]6O[C@H](CO)[C@@H](O)[C@H](O)[C@H]6O)CC[C@@]56C[C@@]46CC[C@]23C)O1 [Astragaloside VI] (10 µM)	0	0	0	0	0	0	0	0	0	0
C=C[C@H]1[C@H](O[C@@H]2O[C@H](CO)[C@@H](O)[C@H](O)[C@H]2OC(=O)c2c(O)cc(O)cc2-c2cccc(O)c2)OC=C2C(=O)OCC[C@H]21 [Amarogentin] (10 µM)	0	0	0	0	0	0	0	0	0	0
Nc1cccc(S(=O)(=O)N2CCCN(S(=O)(=O)c3ccc4c(c3)OCCO4)CC2)c1 (10 µM)	0	0	0	0	0	0	0	0	0	0
Cc1cccc(-c2[nH]ncc2-c2ccc3ncccc3n2)n1 (10 µM)	0	0	0	0	0	0	0	0	0	0
NS(=O)(=O)c1ccc(N2N=C(c3ccccc3)CC2c2ccccc2)cc1 (stereo not given) (10 µM)	0	0	0	0	0	0	0	0	0	0
O[C@H]1CC[C@H](Nc2ncc3nc(Nc4c(F)cc(F)cc4F)n([C@H]4CCOC4)c3n2)CC1 [Tanzisertib] (10 µM)	0	0	0	0	0	0	0	0	0	0
O=C(CCCCCn1cc(Nc2ncc(Cl)c(Nc3ccc(Cl)cc3)n2)cn1)NO (2.5 µM)	0	0	0	0	0	0	0	0	0	0

Arranged by molecular weight (high to low): 3 of the compounds above
SMILES	number of time points [1]	number of time points [2]	number of time points [3]	number of time points [4]	number of time points [5]	number of time points [6]	number of time points [7]	number of time points [8]	number of time points [9]	number of time points [10]
C[C@@H]1O[C@@H](OC[C@H]2O[C@@H](Oc3cc(O)c4c(c3)O[C@H](c3ccc(O)cc3)CC4=O)[C@H](O)[C@@H](O)[C@@H]2O)[C@H](O)[C@H](O)[C@H]1O [Narirutin] (10 µM)	0	0	0	0	0	0	0	0	0	0
Cc1cnc(Nc2ccc(N3CCN(C)CC3)cc2)nc1Nc1cccc(S(=O)(=O)NC(C)(C)C)c1 (2.5 µM)	0	0	0	0	0	0	0	0	0	0
CCN(C)C(=O)c1ccc2c(C(=Nc3ccc(CN4CCCCC4)cc3)c3ccccc3)c(O)[nH]c2c1 (2.5 µM)	0	0	0	0	0	0	0	0	0	0

The results go on.

SMILES	number of time points [1]	number of time points [2]	number of time points [3]	number of time points [4]	number of time points [5]	number of time points [6]	number of time points [7]	number of time points [8]	number of time points [9]	number of time points [10]
Nc1nc2cc(-c3ccc4ncc(C(=O)N5CCOCC5)n4c3)ccc2o1 [Serabelisib] (10 µM)	0	0	0	0	0	0	0	0	0	0
NC(=O)c1ccc(-c2cnn3ccc(NCc4cccnc4)nc23)cc1 (2.5 µM)	0	0	0	0	0	0	0	0	0	0
COc1cc(C(=O)N2CCC(N3CCN(C)CC3)CC2)ccc1Nc1ncc2c(n1)N(C)c1ccccc1C(=O)N2C (10 µM)	0	0	0	0	0	0	0	0	0	0
Nc1[nH]c(=O)nc2c1ncn2[C@@H]1O[C@H](CO)[C@@H](O)[C@H]1O [Crotonoside] (10 µM)	0	0	0	0	0	0	0	0	0	0
O=C1NC(=O)C(c2cn(-c3ccccc3)nc2-c2ccc(F)cc2)N1 (stereo not given) (10 µM)	0	0	0	0	0	0	0	0	0	0
Cn1cc(-c2cc3c(N4CCN(c5ncc([C@@](C)(N)c6ccc(F)cc6)cn5)CC4)ncnn3c2)cn1 [Avapritinib] (2.5 µM)	0	0	0	0	0	0	0	0	0	0
CCN1C(=O)CNc2ncc(-c3ccc(-c4nc[nH]n4)nc3C)nc21 [CC-115 (hydrochloride)] (2.5 µM)	1	0	3	1	0	1	3	2	4	1
C[C@@H]1C[C@H]2O[C@@]3(O[C@@H]2C(C)(C)O)[C@H](O)[C@@]2(C)[C@@H]4CC[C@H]5C(C)(C)[C@@H](O[C@@H]6OC[C@H](O)[C@H](O)[C@H]6O)CC[C@@]56C[C@@]46CC[C@]2(C)[C@@H]13 [Cimiracemoside C] (10 µM)	0	0	0	0	0	0	0	0	0	0
COc1c(C)c(C(=O)c2ccc(N)c(C(=O)O)c2)n2ccccc12 (10 µM)	0	0	0	0	0	0	0	0	0	0
Nc1cc(C(F)(F)F)c(-c2nc(N3CCOCC3)nc(N3CCOCC3)n2)cn1 [Bimiralisib] (10 µM)	0	0	4	3	0	3	1	0	4	0
CCOC(=O)c1c2c3c(cccc3[nH]c1=O)C(=O)c1ccccc1-2 (10 µM)	0	0	0	0	0	0	0	0	0	0
CN(C)Cc1cccc(N=C(c2ccccc2)c2c(O)[nH]c3cc(C(N)=O)ccc23)c1 (10 µM)	0	0	0	0	0	0	0	0	0	0
CC[C@@H]1[C@H](F)C(=O)N[C@@H]1COc1nccc2cc(C(N)=O)c(OC)cc12 (10 µM)	0	0	0	0	0	0	0	0	0	0
O=C(Nc1cccc(-c2nncn2C2CC2)c1)c1cc(-n2cnc(C3CC3)c2)ccn1 (10 µM)	0	0	0	0	0	0	0	0	0	0
O=c1[nH]ccc2cc(OC3CCNCC3)ccc12 (10 µM)	0	0	0	0	0	0	0	0	0	0
Cn1cc(-c2ccc(F)c(C(F)(F)F)c2)nc1C1CCN(c2ncnc3[nH]ncc23)CC1 (10 µM)	0	0	0	0	0	0	0	0	0	0
O=Nc1c(-c2c(O)[nH]c3ccccc23)[nH]c2ccccc12 [Indirubin-3'-monoxime] (2.5 µM)	0	0	0	0	0	0	0	0	0	0
C=CC(=O)N1CCC[C@@H](n2nc(C(=O)Nc3ccc(CC(=O)N(C)C)c(C)c3C)c3c(N)ncnc32)C1 (10 µM)	0	0	0	0	0	0	0	0	0	0
